From PMC4464076

Sequences of proteins named here, by UniProt entry; tags and fusion partners are left off. A change or cut given only in a name is not applied to a line headed by its entry.
UniProt Q15386: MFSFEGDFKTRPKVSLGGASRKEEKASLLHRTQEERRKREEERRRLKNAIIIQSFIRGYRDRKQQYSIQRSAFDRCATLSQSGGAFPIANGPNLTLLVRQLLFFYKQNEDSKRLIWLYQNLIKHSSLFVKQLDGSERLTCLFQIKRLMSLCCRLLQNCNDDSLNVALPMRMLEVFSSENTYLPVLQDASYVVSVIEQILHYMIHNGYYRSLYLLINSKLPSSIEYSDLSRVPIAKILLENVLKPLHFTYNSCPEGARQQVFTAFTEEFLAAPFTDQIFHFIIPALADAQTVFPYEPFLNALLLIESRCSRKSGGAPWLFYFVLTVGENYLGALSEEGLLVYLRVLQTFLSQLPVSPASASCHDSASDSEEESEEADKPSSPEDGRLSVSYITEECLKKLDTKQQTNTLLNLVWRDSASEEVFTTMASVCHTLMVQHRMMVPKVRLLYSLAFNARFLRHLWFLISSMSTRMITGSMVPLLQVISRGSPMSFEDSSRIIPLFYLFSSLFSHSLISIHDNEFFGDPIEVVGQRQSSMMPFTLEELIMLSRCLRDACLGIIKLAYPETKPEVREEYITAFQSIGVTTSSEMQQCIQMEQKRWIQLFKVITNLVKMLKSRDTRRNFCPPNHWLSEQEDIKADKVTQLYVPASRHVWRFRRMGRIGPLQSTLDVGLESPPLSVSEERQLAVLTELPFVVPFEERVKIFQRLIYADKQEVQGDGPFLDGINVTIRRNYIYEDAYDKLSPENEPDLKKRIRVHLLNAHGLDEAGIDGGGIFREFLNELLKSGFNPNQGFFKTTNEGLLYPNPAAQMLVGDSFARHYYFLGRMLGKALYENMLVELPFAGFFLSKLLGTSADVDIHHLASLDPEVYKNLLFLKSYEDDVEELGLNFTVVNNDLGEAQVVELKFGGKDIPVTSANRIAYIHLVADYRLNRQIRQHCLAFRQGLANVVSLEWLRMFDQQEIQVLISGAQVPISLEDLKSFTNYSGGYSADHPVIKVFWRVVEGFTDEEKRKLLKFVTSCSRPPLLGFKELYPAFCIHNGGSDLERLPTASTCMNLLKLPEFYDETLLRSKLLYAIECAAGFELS

Target: Ubiquitin-protein ligase E3C (UBE3C), endogenous in glioma cells (human (endogenous in U87, U251 and TJ899 glioblastoma cells)) (UniProt Q15386)
Assay: affinity purification with mass spectrometry; co-IP of UBE3C from lysates of U87, U251 and TJ899 cells (1% Brij 97 lysis buffer, 4 °C), precipitate analysed by LC-MS/MS

- binding: binds
B1: Annexin A7 (ANXA7), endogenous in glioma cells (protein, UniProt P20073 1-488)
chain: MSYPGYPPTGYPPFPGYPPAGQESSFPPSGQYPYPSGFPPMGGGAYPQVPSSGYPGAGGYPAPGGYPAPGGYPGAPQPGGAPSYPGVPPGQGFGVPPGGAGFSGYPQPPSQSYGGGPAQVPLPGGFPGGQMPSQYPGGQPTYPSQINTDSFSSYPVFSPVSLDYSSEPATVTQVTQGTIRPAANFDAIRDAEILRKAMKGFGTDEQAIVDVVANRSNDQRQKIKAAFKTSYGKDLIKDLKSELSGNMEELILALFMPPTYYDAWSLRKAMQGAGTQERVLIEILCTRTNQEIREIVRCYQSEFGRDLEKDIRSDTSGHFERLLVSMCQGNRDENQSINHQMAQEDAQRLYQAGEGRLGTDESCFNMILATRSFPQLRATMEAYSRMANRDLLSSVSREFSGYVESGLKTILQCALNRPAFFAERLYYAMKGAGTDDSTLVRIVVTRSEIDLVQIKQMFAQMYQKTLGTMIAGDTSGDYRRLLLAIVGQ

Results are given in words; binding and its absence hold for the method and conditions named. Binding seen in cells or lysates may run through a third protein. These calls come from enrichment with a bait or labelling near it, and not all partners need be listed.
